Among the data in PubChem BioAssay AID662 (National Center for Advancing Translational Sciences (NCATS), 2007) are AC50 values, retold here.

SMILES strings stand for the structures. Where “and” joins values, the source holds several entries; their conditions need not be identical. Identical values can stand only once. This is one part of the list. These are further read-outs of the screen, such as a control signal, another cell line or another target. No call is given for them. Compounds called inactive in the main read-out are mostly missing here. The note in brackets gives the kind of curve behind each potency; many fits are weak.

The assay in a line: Cell signaling CRE-BLA (Fsk stim). Conditions: CHO CRE-bla reporter (cAMP response element driving beta-lactamase), forskolin EC10, beta-lactamase ratio; measured here: 460 nm blue channel. In outline: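 Cells were plated overnight at 37 °C, exposed to compound titrations plus EC10 NKH 477 for 3 h, then given CCF4 dye for 2 h at room temperature. Blue/green (460/530 nm) ratio was converted to %Activity and AC50 values calculated.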
By AC50 is commonly meant the midpoint of the concentration-response curve, whichever way the signal moves. As for `CCOC(=O)c1cccc(N2C(=O)c3ccccc3S2(=O)=O)c1`, the AC50 was 12.6 µM [rising, partial curve].
For the molecule `Cc1ccccc1Nc1ncnc2c1cnn2-c1ccccc1`, the AC50 is 10 µM [rising, partial curve].
With `COc1ccc(Br)cc1S(=O)(=O)N1CCOCC1` the figure was 3.16 µM [falling, single point].
With `COc1cc(C2NC(=O)NC(c3ccccc3)=C2C(C)=O)ccc1OCC(=O)O` (stereo not drawn), the AC50 was 12.6 µM [rising, partial curve].
With `Cc1ccc(CNC(=O)C2c3ccccc3C(=O)N(C)C2c2c[nH]c3ccccc23)o1` (stereo not drawn), the AC50 was 0.0251 µM [falling, full curve, poor fit].
As for `Cc1ccc(-c2nnc(N3CCCCC3)c3ccccc23)cc1S(=O)(=O)N1CCN(C)CC1`, the figure is 10 µM [rising, partial curve]; as for `CCOC(=O)c1ccc(N2C(=O)CC(N3CCC(O)(c4ccc(Cl)cc4)CC3)C2=O)cc1` (stereo not drawn), 0.0126 µM [falling, full curve, poor fit]; as for `CC(=O)CC1(C)OC(N)=C(C#N)C1(C#N)C#N` (stereo not drawn), 12.6 µM [falling, partial curve].
With `CCC(CC)C(=O)Nc1nnc(SCC(=O)N2CCN(c3ccccc3OC)CC2)s1`, the concentration at half-maximal activity (AC50) is 3.16 µM [falling, single point].
For the molecule `COc1ccc(-n2nnnc2SCC(=O)NCc2ccco2)cc1OC`, the AC50 is 20 µM [rising, single point].
With `CCOC(=O)c1c(N)nn(C(=O)C(C)C)c1-c1ccccc1` the figure was 12.6 µM [rising, single point]; with `O=C(O)C1CCN(Cc2cnn(-c3ccccc3)c2-n2cccc2)CC1`, 12.6 µM [falling, partial curve, poor fit]; with `Cc1nc2sccn2c1-c1nc(-c2cc3ccccc3o2)cs1`, 10 µM [rising, partial curve].
Turning to `O=C(Cc1ccc(Cl)cc1)Nc1ccc(N2CCN(C(=O)c3ccco3)CC2)c(Cl)c1`, the AC50 was 10 µM [falling, single point].
As for `O=C(Cn1cccc1)Nc1ccc(OC(F)(F)F)cc1`, the figure is 0.00631 µM [falling, full curve, poor fit]; as for `COc1cc(Cn2c(N)c(C#N)c3nc4ccccc4nc32)cc(OC)c1`, 10 µM [rising, partial curve].
Turning to `N#CC(C(=O)NC1CC1)c1nc2ccccc2nc1N1CCCC1` (stereo not drawn), the AC50 is 6.31 µM [rising, partial curve].
With `Cc1ccc(N2CC(C(=O)Nc3nnc(C)s3)CC2=O)cc1` (stereo not drawn) the figure was 2 µM [rising, partial curve]; with `O=C1Cc2c([nH]c3ccc(Br)cc23)-c2ccccc2N1`, 7.94 µM [falling, full curve] and 5.01 µM [falling, partial curve].
On to `Cn1c(=O)oc2cc(S(=O)(=O)N3CCC(C(=O)N4CC=C(c5ccccc5)CC4)CC3)ccc21`, for which the AC50 was 10 µM [falling, partial curve].
As for `Cc1cccc(CNc2ncncc2-c2cccc(NS(C)(=O)=O)c2)c1`, the figure is 25.1 µM [rising, single point]; as for `CCOC(=O)Nc1oc2ccccc2c(=O)c1CN1CCOCC1`, 12.6 µM [rising, partial curve].
Consider `CCOC(=O)c1cnc2c(C)c(Cl)ccc2c1N1CCOCC1`, for which the AC50 is 3.16 µM [rising, partial curve].
On to `O=C(Nc1ccc2c(c1)OCO2)C1CCN(S(=O)(=O)c2cccs2)CC1`, for which the AC50 was 3.16 µM [rising, partial curve].
As for `COc1ccccc1NC(=O)c1nnn(CC(=O)Nc2cccc(SC)c2)c1N`, the figure is 20 µM [falling, single point].
With `COc1cc(NC(=O)CN2c3cccc4cccc(c34)S2(=O)=O)cc(OC)c1OC` the figure was 10 µM [rising, partial curve].
As for `Cn1c(/N=C/c2c(O)ccc3ccccc23)nc2ccccc21`, the figure is 0.00316 µM [falling, full curve, poor fit].
As to `Nc1nc(-c2ccccc2)nc(-c2ccccc2O)n1`, the AC50 was 15.8 µM [falling, partial curve].
As for `O=c1c(-c2ccccc2)nc2cnc(Oc3ccccc3)nc2n1C[C@H]1CCCO1`, the figure is 10 µM [rising, single point]; as for `Cc1ccc2nsnc2c1NS(=O)(=O)c1c(C)ccc2nsnc12`, 25.1 µM [falling, partial curve, poor fit].
With `Cc1ccc(-c2nnc(SCC(=O)O)n2N)cc1` the figure was 25.1 µM [rising, single point]; with `Cc1[nH]c2ccccc2c1-c1nc2ccccc2[nH]1`, 0.01 µM [falling, full curve, poor fit]; with `O=C(Nc1c(F)cc(F)cc1Br)c1cc(-c2ccc(O)cc2)on1`, 10 µM [falling, partial curve].
Regarding `CN(Cc1cnn(C)c1)C(=O)c1cc2ccccc2oc1=O`, the AC50 is 0.126 µM [falling, single point].
In the case of `O=S(=O)(NCCSc1ccccc1)c1cccs1`, the AC50 was 5.01 µM [falling, partial curve].
In the case of `N#CC1=C(N)N(c2ccccc2)C(c2ccco2)C1(C#N)C#N` (stereo not drawn), the AC50 was 10 µM [rising, single point].
As for `Cc1ccc2oc(-c3ccco3)nc2c1`, the figure is 25.1 µM [rising, single point]; as for `Cc1cccc(S(=O)(=O)Nc2cccc(-c3cn4ccsc4n3)c2)c1`, 2 µM [rising, partial curve].
Consider `c1cncc(-c2nc(N3CCNCC3)c3ccccc3n2)c1`, for which the AC50 was 15.8 µM [rising, single point].
With `C[C@@]12CCC(=O)C=C1CC[C@H]1[C@H]3CC[C@](O)(C(=O)CO)[C@]3(C)CC[C@@H]12`, the AC50 was 25.1 µM [falling, partial curve].
As for `CS(=O)(=O)Nc1ccc(C(=O)Nc2ccccc2C(=O)N2CCCC2)cc1`, the figure is 3.98 µM [falling, full curve, poor fit]; as for `O=C1c2ccccc2CC[C@H]1CNCCc1ccc(O)cc1`, 25.1 µM [falling, partial curve].
As for `COc1ccc(C(=O)COC(=O)CCN=C2NS(=O)(=O)c3ccccc32)cc1OC`, the figure is 10 µM [rising, partial curve].
As for `Cc1cc(C)n(-c2nc3c(c(=O)n(C)c(=O)n3C)n2Cc2cccc(Br)c2)n1`, the figure is 31.6 µM [falling, single point].
Turning to `O=C(Nc1c(C(=O)N2CCOCC2)cnn1-c1ccccc1Cl)c1ccco1`, the AC50 is 6.31 µM [rising, partial curve].
As for `FC(F)(F)c1cc(-c2cccs2)nc(N2CCOCC2)n1`, the figure is 25.1 µM [rising, single point]; as for `CCOc1ccccc1NC(=O)CSc1ncnc2c1oc1ccccc12`, 0.398 µM [rising, full curve]; as for `Cc1cc(C(=O)CSc2nnc(-c3ccco3)o2)c(C)n1-c1ccc2c(c1)OCCO2`, 25.1 µM [falling, single point].
Take `COc1ccccc1NC(=O)c1ccc(Cl)c(S(=O)(=O)N2CCOCC2)c1`: the AC50 is 0.00398 µM [falling, full curve].
With `CCOC(=O)N1CCN(C(=O)CCc2c(C)nc3nc(C)nn3c2C)CC1`, the AC50 is 1 µM [falling, full curve].
With `COc1ccccc1Oc1ccc(S(=O)(=O)NCc2ccccn2)cc1` the figure was 25.1 µM [rising, single point]; with `CS(=O)(=O)N(CC(=O)Nc1ccc2c(c1)OCCO2)Cc1ccc(Cl)cc1`, 0.794 µM [falling, full curve, poor fit]; with `CN(C)c1ncc2ncc(=O)n(C3CC3)c2n1`, 15.8 µM [rising, partial curve].
With `COc1cc(NC(=O)c2cc(C(C)C)on2)cc(OC)c1OC` the figure was 10 µM [rising, partial curve]; with `O=C1CCCC(O)=C1C1C2=C(CCCC2=O)Oc2ccccc21` (stereo not drawn), 6.31 µM [falling, partial curve].
With `CN(C)c1ncc2nc(CCc3ccccc3)c(=O)n(C[C@H]3CCCO3)c2n1` the figure was 12.6 µM [rising, partial curve]; with `COC(=O)c1ccccc1NC(=O)C1CC(c2ccccc2O)=NO1` (stereo not drawn), 12.6 µM [falling, partial curve].
`COCCNc1nc(C)nc2c1nc(-c1ccccc1)n2CCN(C)C`: the AC50 is 12.6 µM [rising, partial curve].
As for `CCn1c(=O)cc(SCC(=O)NCc2ccco2)c2ccccc21`, the figure is 10 µM [rising, partial curve]; as for `CC(=O)NCCNc1nc(-c2ccc(N(C)C)cc2)nc2ccccc12`, 12.6 µM [rising, partial curve]; as for `Cc1ccc(C2NC(=O)c3c(sc4c3CCN(C)C4)N2)o1` (stereo not drawn), 5.01 µM [rising, full curve, poor fit].
With `O=C(O)c1cccn2c(=O)c3ccccc3nc12` the figure was 20 µM [rising, single point].
As for `CC(=O)c1ccc2c(c1)Nc1ccccc1S2`, the figure is 2.51 µM [falling, full curve, poor fit]; as for `CCOC(=O)CSc1nnc(CNC(=O)c2cccs2)n1Cc1ccccc1`, 25.1 µM [rising, single point].
`CCCn1c(=O)c(C(=O)Nc2ccccc2C(=O)OCC)c(O)c2ccccc21`: the AC50 was 0.251 µM [rising, full curve].
With `COc1ccc(CCNC(=O)CSc2nc(N)c3c(C)c(C)oc3n2)cc1OC` the figure was 12.6 µM [rising, single point]; with `CN(C)c1ccc(-c2nc(N3CCNCC3)c3ccccc3n2)cc1`, 10 µM [rising, partial curve]; with `COc1ccc(OC)c(-c2cc(C(=O)Nc3c(C)nn(Cc4ccccc4)c3C)no2)c1`, 5.01 µM [rising, partial curve].
